Assay results from patent publication US20250304662A1.
These are yes or no findings as the source states them, for the method shown. Binding calls can cover weak binding; strength is not graded here.

B1: 2G04 (antibody, V domains shown)
VH: EVQLQQPGPELVKPGSSLKISCKASGYTFTDYFINWVKQRPGQGLDWIGWIFPGSGSTYYNDKFKGKATLTVDKSSSTAYMLLSSLTSEASAVYFCARWDSDSTYWYFDVWGTGTTVTVSS
VL: QIVLTQSPALMAASPGEKVTITCSVNSSISSSTLHWYQQKSQTSPKPWIYGTSNLASGVPIRFSGSGSGTSYSLTISSMEAEDAATYYCQQWSTYPYTFGGGTKLEIKR
B2: Kp1 1A02 (antibody, V domains shown)
VH: EVQLQQSGPVLVKPGPSMKISCKASGFTFTDYYIHWVRQSHGKSLEWIGLVSPYNGGTYYNQKFKGKATLTVDSSSSTAYMELSSLTSEDSAVYYCARLGYYGDWYYFDYWGQGTPLTVSS
VL: QIVLTQSPALMATSPGEKVTITCSVSSSISSSNLNWYQQKSETSPKPWIYGTSNLASGVPVRFSGSGSGTSYSLTISSMEAEDAATYYCQQWSSYPYTFGGGTKLEIKR
B3: Kp1 2E08 (antibody, V domains shown)
VH: EVQLQQPGAELAKPGASVKLSCKASGYNFTSYWMHWVKQRPGQGLEWIGLIHPNSGGTYYNEKFKSKATLTLDRSSSTAYMQLSSLTSEDSAVYYCARFEEEWGGYWYFDVWGTGTTVTVSS
VL: QIVLTQSPALMAASPGEKVTITCSVSSSISSSNLHWYQQKSETSPKPWIYGTSNLASGVPVRFSGSGSGTSYSLTISSMEAEDAATYYCQQWSSYPYTFGGGTKLEIKR
B4: Ec1 F7 (antibody, V domains shown)
VH: EVQLQQPGPVLVKPGPSVKISCKASGFTFTDYFIHWVKQSHGKSLEWIGLVSPYNGGTYYNQQFKGKATLTVDTSSSTAYMDLNSLTSEDSAVYYCTRLLRGYWYFDVWGTGTTVTVSS
VL: QIVLTQSPALMAASPGEKVTITCSVSSSIGSSNLHWYQQKSETSPKPWIYGTSNLASGVPVRFSGSGSGTSYSLTISSMEAEDAATYYCQQWSTYPYTFGGGTKLEIKR
B5: Kp2 2C07 (antibody, V domains shown)
VH: EVKLVESGEGLVKPGGSLKLSCAASGFTFSSYAMSWVRQTPEKRLDWVAYISSGGDHIYYADTVKGRFTISRDNARNTLYLQMSSLKSEDTAMYYCTRDTGYYVSRYFDVWGTGTTVTVSS
VL: DIVMTQSQKFMSTSVGDRVSVTCKASQNVVTNVAWYQQKSGQSPKVVIYSASFRSSGVPDRFTGSGSGTDFTLTISNVQSEDLAEYFCHQYNSHPLTFGGGTKLEIKR

The binders below were run against FimH tipping type 1 pili on E. coli UT189 bacteria (E. coli (UT189)) (assay: bacterial cell ELISA on UT189).
In the case of B1, the binding is reported as “binds”.
B2 was tested, and the binding was “binds”.
B3 was tested, and the binding was “binds”.
With B4 the binding was “binds”.
B5 was tested, and the binding was “binds”.
